Measured data: PubChem BioAssay AID1224826 (NIAID, 2016)

- Aim: 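Genes that change LPS-induced Tnf promoter activity in mouse macrophages when knocked down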 (primary screen)
- Cells: RAW264.7 G9 macrophages from mouse bearing reporters for p65 (GFP) and the Tnf promoter (mCherry)
- Reagent: siRNA pool against mouse genes, 100 nM
- Time to read-out: 16 h of LPS stimulation, after 2 days of siRNA transfection
- Challenge: bacterial lipopolysaccharide (Salmonella minnesota R595), 10 ng/ml
- Read-out: 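Nuclear mCherry signal of the Tnf promoter reporter measured by imaging after background removal, scaled to each plate median and turned into robust z-scores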
- Direction: Tnf reporter robust z-score: higher = stronger Tnf promoter reporter signal after LPS; Tnf reporter intensity: higher = stronger Tnf promoter reporter signal
- Active means: 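Called active when robust z-score is at most -1.3, matching the median of the Tlr4 knock-down control, or over 3; control wells and wells with under 50 cells never active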
- Calls: active = Tnf reporter clearly lowered or raised; inactive = no clear change in Tnf reporter
The deposit covers about 17,000 reagents; this is a part drawn at random. Of all reagents, about 1,110 (6.6%) got an active call. 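Active means lowered or raised reporter signal; replicate intensities are raw and not normalised per plate.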 Entries without a mark were called inactive. Reagents against one gene are numbered here.

no.	gene	pool no.	Tnf reporter robust z-score	fewer than 50 cells in well	Tnf reporter intensity, replicate 1	Tnf reporter intensity, replicate 2
1	Ubp1 (GeneID 22221)	1	0.92	enough cells in well	163	111
2	Pmvk (GeneID 68603)	1	-0.68	enough cells in well	146	129
3	Ceacam13 (GeneID 69785)	1	0.02	enough cells in well	163	181
4	Spmip5 (GeneID 67507)	1	-0.22	enough cells in well	176	77.2
5	Vmn1r234 (GeneID 171232)	1		fewer than 50 cells per well; well left out of calls	104	90.5
6	Prx (GeneID 19153)	1	-0.07	enough cells in well	191	230
7	Ddx41 (GeneID 72935)	1	1.35	enough cells in well	328	192
8	Stxbp2 (GeneID 20911)	1	-2.26 (active)	enough cells in well	28.9	24.4
9	Or5h24-ps1 (GeneID 404309)	1	-0.23	enough cells in well	188	96.1
10	Mterf4 (GeneID 69821)	1		fewer than 50 cells per well; well left out of calls	159	59.2
11	Wdr1 (GeneID 22388)	1	-0.37	enough cells in well	222	206
12	Pcnx1 (GeneID 54604)	1	1.05	enough cells in well	174	204
13	Chrd (GeneID 12667)	1	-0.21	enough cells in well	135	188
14	Aldh6a1 (GeneID 104776)	1	-0.29	enough cells in well	156	147
15	Dclre1b (GeneID 140917)	1	-0.24	enough cells in well	199	225
16	Glyr1 (GeneID 74022)	1		fewer than 50 cells per well; well left out of calls	75	66.4
17	Med24 (GeneID 23989)	1	0.03	enough cells in well	249	126
18	Eif2ak2 (GeneID 19106)	1	0.42	enough cells in well	200	206
19	Epha2 (GeneID 13836)	1	0.2	enough cells in well	212	166
20	Ctnnb1 (GeneID 12387)	1	0.21	enough cells in well	303	184
21	Selenbp2 (GeneID 20342)	1	0.04	enough cells in well	318	188
22	Cfap97 (GeneID 66756)	1		fewer than 50 cells per well; well left out of calls	145	60.9
23	Trabd (GeneID 67976)	1	2.18	enough cells in well	316	245
24	Gbgt1 (GeneID 227671)	1	2.07	enough cells in well	305	309
25	Cldnd1 (GeneID 224250)	1	-0.93	enough cells in well	235	48.2
26	Rnase2b (GeneID 54159)	1	-0.23	enough cells in well	168	109
27	Las1l (GeneID 76130)	1	0.45	enough cells in well	226	149
28	Slc52a3 (GeneID 69698)	1		fewer than 50 cells per well; well left out of calls	233	110
29	Rbfa (GeneID 68731)	1	-0.61	enough cells in well	226	57.9
30	Or5p62 (GeneID 258489)	1	-0.63	enough cells in well	99.3	64.7
31	Enpp1 (GeneID 18605)	1	0.62	enough cells in well	266	291
32	Or4n4 (GeneID 258659)	1	-1.16	enough cells in well	229	35.8
33	Adm (GeneID 11535)	1	2.62	enough cells in well	334	299
34	Ndst1 (GeneID 15531)	1	-1.62 (active)	enough cells in well	125	35.5
35	Tnks (GeneID 21951)	1		fewer than 50 cells per well; well left out of calls	37.9	0
36	Tnks (GeneID 21951)	2	0.9	enough cells in well	222	249
37	Tm4sf4 (GeneID 229302)	1	0.57	enough cells in well	237	186
38	Slc46a1 (GeneID 52466)	1	-0.1	enough cells in well	194	154
39	Tmco5a (GeneID 67356)	1		fewer than 50 cells per well; well left out of calls	237	52.4
40	Grm6 (GeneID 108072)	1	-0.03	enough cells in well	237	250
41	Tada2a (GeneID 217031)	1	1.18	enough cells in well	311	196
42	Pdgfrb (GeneID 18596)	1	1.98	enough cells in well	308	285
43	Lrrn2 (GeneID 16980)	1	2.55	enough cells in well	345	279
44	Guca2b (GeneID 14916)	1	-0.26	enough cells in well	231	217
45	Sorcs2 (GeneID 81840)	1	-0.18	enough cells in well	250	212
46	Mtmr4 (GeneID 170749)	1	-0.66	enough cells in well	199	164
47	Ccnl2 (GeneID 56036)	1	1.24	enough cells in well	242	239
48	Osbpl9 (GeneID 100273)	1	1.31	enough cells in well	147	254
49	Phldb1 (GeneID 102693)	1	1.64	enough cells in well	326	224
50	Aldh9a1 (GeneID 56752)	1	0.24	enough cells in well	170	197
51	Exoc3 (GeneID 211446)	1	2.04	enough cells in well	176	164
52	Enpep (GeneID 13809)	1	0.02	enough cells in well	227	236
53	Tead4 (GeneID 21679)	1		fewer than 50 cells per well; well left out of calls	70.2	54.3
54	Gm10336 (GeneID 328186)	1	0.43	enough cells in well	164	219
55	Gjb1 (GeneID 14618)	1	-0.66	enough cells in well	209	174
56	Fam171b (GeneID 241520)	1	-1.4 (active)	enough cells in well	109	76.1
57	Cd244a (GeneID 18106)	1	0.21	enough cells in well	252	234
58	Atcay (GeneID 16467)	1	0.75	enough cells in well	224	197

5 successive entries from above, quoted:
no.	gene	pool no.	Tnf reporter robust z-score	fewer than 50 cells in well	Tnf reporter intensity, replicate 1	Tnf reporter intensity, replicate 2
25	Cldnd1 (GeneID 224250)	1	-0.93	enough cells in well	235	48.2
26	Rnase2b (GeneID 54159)	1	-0.23	enough cells in well	168	109
27	Las1l (GeneID 76130)	1	0.45	enough cells in well	226	149
28	Slc52a3 (GeneID 69698)	1		fewer than 50 cells per well; well left out of calls	233	110
29	Rbfa (GeneID 68731)	1	-0.61	enough cells in well	226	57.9
